Assay results: publication PMC10556106
No constants are given. Whether binding was seen depends on the method and setting. Binding seen in cells or lysates may run through a third protein. Binding calls can cover weak binding; strength is not graded here. Sequences can lack the tags named with a protein.

B1: V5-tagged Drosophila Usp46 (Usp12-46) (enzyme, UniProt Q9VCT9 1-424)
chain: MGANVSQLEREIGSDLFPPNEHYFGLVNFGNTCYSNSVLQALYFCKPFREKVLEYKAKNKRPKETLLSCLADLFYSIATQKKKVGSIAPKKFITRLRKEKEEFDNYMQQDAHEFLNFLINHINEIILAERNAGPSNGNPKATNQGGSTSAMASSIASKSSSTSNSNSNSNSTTNSNGNSSNSTGSLNANTSVLDASGSLTATTTPIISGNGTGTNGANSEPTWVHEIFQGILTSETRCLNCETVSSKDENFFDLQVDVDQNTSITHCLRCFSNTETLCSDNKFKCDNCCSYQEAQKRMRVKKLPMILALHLKRFKYMEQFNRHIKVSHRVVFPLELRLFNTSDDAVNPDRLYDLTAVVIHCGSGPNRGHYISIVKSHGLWLLFDDDMVDKIEASTIEDFYGLTSDIHKSSETGYILFYQSRDCA
B2: V5-tagged Drosophila Uaf1 (protein, UniProt Q1LZ08 1-668)
chain: MLTHKTCQARKKMQVSFVIRDAEEKQHRNGVNALQLDANNGKLYSAGRDAIIRVWNTRTDSSEKYIQSMEHHNDWVNDIVLCCNGRNLISASCDTTVKVWNAQKGFCMSTLRTHRDYVQALAYAKDREQVASAGLDKAIFLWDVNTLTALTASNNTVTTSSLTGSKDSIYSLAMNPSGTVIVSGSTENILRIWDPRTCMRRMKLRGHTENVRCLVVSPDGNQVVSGSSDGTIKVWNLGQQRCVQTIHVHKEGVWSLLMSENFQYIISGSRDRNIIVTEMRNPSNKTLVCEEQAPVLSLGYNIDKTGVWATTWNSDIRCWKLPMYDRCTLNSSGGMDAQWTQGGTEVACIKGGAAIKECAVLNDKRYIITKDSQDQVVVYDVLRVVKKEQLGAVDFEAEVKKRNKQVYIPNWFTVDLKTGMPTIVLGQEEVDCFSAWVSIEAGLPECVDPTTEIKINYGKLLLEALLEYWTPPHSIPPNEMEPDMHGNGYFQVPKHTPVIFSEVGGRTVCRLLVRDAAGDSESTLLHETAPQWVTDVVIEKNIPKFLKIPFFLQPHPQMTKPERTKKDRLVANEFIQCRKVCEHVLEKVLNAETTPSGGNANNSLQNSQSDANSEGSQLPAEERIELWCNDVVVDPNMDLRTVRHFIWKQSTDLTFQYKTKQNFNYDGK

Molecular target: 3XFLAG-Arrow (Drosophila Arrow, ortholog of the Wnt receptor LRP6) (Drosophila)
Experiment: co-IP; HEK293T cells transfected with V5-tagged Usp46, Uaf1 and Wdr20 and FLAG-Arrow or empty vector; lysed after 48 h in NDLB (50 mM Tris pH 7.5, 300 mM NaCl, 1% Triton X-100, 5 mM EDTA, 0.2 g/L sodium azide); FLAG-Arrow precipitated with FLAG M2 affinity agarose, washed five times in NDLB; V5 immunoblot

Binder	binding
B1	binds
B2	binds
